At least one read-out could not be matched to a standard name with certainty.
Assay: Antagonism Tetrabenazine (antidepressive action)
Type: in vivo
Conditions: head printed only as drawing 7

Cc1ccc2c(c1)c1c3n2CCN=C3CCC1.Cl [Example 1, 8-methyl-2,4,5,6-tetrahydro-1H-pyrazino[3,2,1-jk]carbazole-hydrochloride]
column headed by drawing 7 (quotient of LD50 and ED50 by the figures): 18,0

COc1ccc2c(c1)c1c3n2CCN=C3CCC1.Cl [Example 2, 8-methoxy-2,4,5,6-tetrahydro-1H-pyrazino[3,2,1-jk]carbazole-hydrochloride]
column headed by drawing 7 (quotient of LD50 and ED50 by the figures): 18,5

From patent US4271073A, “6-Substituted-9-(2-hydroxyethyl)-1,2,3,4-tetrahydro carbazol-1-one” (Cassella Aktiengesellschaft, priority 1979, dated 1981)
